Experiment [1] deals with Flag-PD-L1 (UniProt Q9NZQ7). As to the kind of experiment: co-IP; Flag-PD-L1 immunoprecipitates (Supplemental Fig. 8d, e); BCLAF1 upregulated; SPOP knocked down or overexpressed; cells not given.
The target in the next experiment is Flag-SPOP (UniProt O43791). As to the kind of experiment: co-IP; HEK-293T cells transfected 24 h with the tagged constructs; anti-Flag M2 agarose beads at 4 °C overnight, washed three times with BC100 buffer (20 mM Tris-Cl pH 7.9, 100 mM NaCl, 0.2 mM EDTA, 20% glycerol) with 0.2% Triton X-100; Western blot. In general terms: In western blotting, separated proteins are transferred to a membrane and probed.

The chains behind the UniProt entries cited, without tags or fusion partners. Residues count along the entry.
UniProt Q9NZQ7, residues 19-290: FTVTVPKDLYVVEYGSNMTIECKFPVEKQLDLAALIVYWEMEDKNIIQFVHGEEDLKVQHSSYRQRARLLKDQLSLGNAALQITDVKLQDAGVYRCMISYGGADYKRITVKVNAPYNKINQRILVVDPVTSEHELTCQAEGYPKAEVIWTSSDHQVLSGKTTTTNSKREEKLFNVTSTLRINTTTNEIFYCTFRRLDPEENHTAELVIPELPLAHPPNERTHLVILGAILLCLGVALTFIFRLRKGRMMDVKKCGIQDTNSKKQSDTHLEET
UniProt O43791: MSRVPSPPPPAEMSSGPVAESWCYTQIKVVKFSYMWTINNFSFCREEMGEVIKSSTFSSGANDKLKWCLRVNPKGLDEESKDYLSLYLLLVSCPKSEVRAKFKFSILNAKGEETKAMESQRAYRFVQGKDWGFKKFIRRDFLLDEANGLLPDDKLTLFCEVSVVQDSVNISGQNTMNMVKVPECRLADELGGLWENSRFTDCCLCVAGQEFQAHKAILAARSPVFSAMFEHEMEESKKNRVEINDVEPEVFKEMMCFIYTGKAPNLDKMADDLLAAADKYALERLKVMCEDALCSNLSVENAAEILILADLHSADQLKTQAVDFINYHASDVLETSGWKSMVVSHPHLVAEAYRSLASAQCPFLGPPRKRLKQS
UniProt Q9NYF8: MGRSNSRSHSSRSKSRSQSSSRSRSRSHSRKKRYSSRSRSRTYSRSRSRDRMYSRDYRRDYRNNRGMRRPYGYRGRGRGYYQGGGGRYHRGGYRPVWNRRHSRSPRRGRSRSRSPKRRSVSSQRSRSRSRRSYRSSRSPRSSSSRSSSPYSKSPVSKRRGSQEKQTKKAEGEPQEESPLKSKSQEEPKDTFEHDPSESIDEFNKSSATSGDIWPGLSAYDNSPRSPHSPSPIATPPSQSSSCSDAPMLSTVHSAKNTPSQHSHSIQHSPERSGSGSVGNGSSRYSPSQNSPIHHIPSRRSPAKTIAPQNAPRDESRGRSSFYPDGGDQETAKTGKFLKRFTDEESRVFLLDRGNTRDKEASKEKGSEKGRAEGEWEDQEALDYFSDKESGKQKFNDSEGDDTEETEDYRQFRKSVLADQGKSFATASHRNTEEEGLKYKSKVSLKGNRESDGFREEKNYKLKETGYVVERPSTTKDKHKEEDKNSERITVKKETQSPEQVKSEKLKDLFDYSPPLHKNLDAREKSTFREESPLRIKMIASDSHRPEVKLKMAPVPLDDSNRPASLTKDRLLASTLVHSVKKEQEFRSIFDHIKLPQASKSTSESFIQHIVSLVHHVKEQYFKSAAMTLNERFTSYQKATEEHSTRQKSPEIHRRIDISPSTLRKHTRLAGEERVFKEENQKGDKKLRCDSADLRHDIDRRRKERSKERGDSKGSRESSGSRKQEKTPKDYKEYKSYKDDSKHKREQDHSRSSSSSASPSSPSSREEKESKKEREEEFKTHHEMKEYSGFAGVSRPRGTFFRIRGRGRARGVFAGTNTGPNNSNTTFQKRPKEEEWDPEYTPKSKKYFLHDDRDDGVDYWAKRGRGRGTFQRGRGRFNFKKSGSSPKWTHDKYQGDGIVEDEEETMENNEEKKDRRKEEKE

For another experiment, the target named is Flag-BCLAF1 (UniProt Q9NYF8). Described as above.
In experiment [2] the target is endogenous BCLAF1 (SK-Hep1 cells) (human (endogenous in SK-Hep1)) (UniProt Q9NYF8). In words: proximity ligation; fixed and permeabilised SK-Hep1 cells; anti-BCLAF1 and anti-SPOP primary antibodies, Duolink in situ Red kit; control with BCLAF1 primary antibody only.
The target is the same in experiment [3]. As to the kind of experiment: co-IP; cell extracts of SK-Hep1 cells, IgG or anti-BCLAF1 antibody; endogenous proteins; Western blot.
The target in experiment [4] is Flag-PD-L1 (UniProt Q9NZQ7). As to the kind of experiment: co-IP; HEK-293T cells treated with MG-132 (20 μM) for 8 h before lysis; SPOP with PD-L1, with or without BCLAF1 co-expressed.
For experiment [5], the target named is BCLAF1 (tag not stated for the experiment) (UniProt Q9NYF8). As to the kind of experiment: co-IP; BCLAF1 with full-length SPOP and three deletion mutants (Supplemental Fig. 2c); cells and tags not stated.
For experiment [6], the target named is recombinant SPOP of the GST pull-down (UniProt O43791). As to the kind of experiment: pull-down; GST fusion proteins on glutathione-sepharose beads incubated 2 h with His-tagged recombinant protein; 20 mM Tris-HCl pH 7.5, 150 mM NaCl, 0.1% NP-40, 1 mM DTT, 10% glycerol, 1 mM EDTA, 2.5 mM MgCl2; Western blot; both purified.

Results are given in words; binding and its absence hold for the method and conditions named. For some of these results: Binding seen in cells or lysates may run through a third protein. Some binding calls cover weakened binding; strength is not graded here.

Turning to “BCLAF1 (tag not stated for the experiment) (from UniProt Q9NYF8 1-920)”, in the experiment with Flag-PD-L1 [1], the binding result is given as “binds”.

Myc-BCLAF1 (from UniProt Q9NYF8 1-920): in the experiment with Flag-SPOP, the binding result is reported as “binds”. In the case of Myc-SPOP (from UniProt O43791 1-374), in the experiment with Flag-BCLAF1, the binding result is reported as “binds”.

With “endogenous SPOP (HEK-293T cells) (from UniProt O43791 1-374)”, the binding entry in the experiment with Flag-BCLAF1 is reported as “binds”.

As to “endogenous SPOP (SK-Hep1 cells) (from UniProt O43791 1-374)”, the binding result in experiment [2] and in experiment [3] was “binds” in each case. Regarding “full-length SPOP (SPOP-WT) (from UniProt O43791 1-374)”, the binding result (with Flag-PD-L1 [1]; with Flag-PD-L1 [4]; in experiment [5]) was “binds” each time. Turning to “recombinant BCLAF1 (wild type) of the GST pull-down (from UniProt Q9NYF8 1-920)”, the binding result in experiment [6] is given as “binds”.

The record behind these values is PMC10858942.
